## Primary screen of a compound library

From ChEMBL document CHEMBL3988442, “University of Dundee, Small-Polar-MMV Screening Library” (2021).

The filed quantity is “Percent Effect” (%). The record does not define 0% and 100%; most values in the screen are far below 50% and negative numbers occur (in some assays of this library far below -100). The compounds are a random part of those screened.

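Whole-parasite assay of Trypanosoma brucei over 72 hours; the read-out is not stated. Compounds at 30 µM. The record gives no direction; compounds that gave an IC50 in retests scored well above the rest, so higher reads as stronger inhibition. Values scatter widely below zero; nearly all retest evidence comes from the higher of the two concentrations used. About 64,000 compounds were tested under these conditions; 1.5% (about 940) showed 50% or more at least once.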

* CC(=O)N(Cc1ccc(NCc2cnn(C(C)(C)C)c2)cc1)C(C)C : -11.55%
* O=C(O)C(F)(F)F.O=C(O)C(F)(F)F.[H][C@@]12CCN(Cc3cccnc3)[C@]1([H])CC[C@H](COCC1CCOCC1)O2 : -527.6%
* CCn1cc(CN2CCc3nc(N4CCOCC4)nc(O)c3CC2)cn1 : 1.592%
* CCOCC1CN(Cc2ccoc2)Cc2nn(CC3CC3)cc21.O=C(O)C(F)(F)F (stereo not given) : -53.07%
* O=C(c1cc[nH]n1)N1CCCC1c1cnccn1 (stereo not given) : -10.4%
* Cc1c(-c2cc(C(F)F)nc3sc(C(N)=O)c(N)c23)cnn1C : 17.9%
* CCc1c(C(=O)N2CCCN(C(C)=O)CC2)cnn1C(C)(C)C : 17.17%
* Cc1cc(=O)n(CC(=O)Nc2cccc(Cl)c2)nc1C : -10.07%
* COCCNC(=O)c1ccc2c(=O)n3c(nc2c1)CCN(C)CC3 : -17.14%
* CN(CCNC(=O)NCc1ccncc1)C1CCCC1 : -26.37%
* COCC(=O)N1C[C@@H](c2cc(O)nc(C)n2)[C@H](c2ccccc2F)C1 : -25.15%
* O=C(COCC1CCCO1)N1CCCN(Cc2ccccc2F)CC1 (stereo not given) : 9.581%
* CCCC1c2cccn2CCN1S(=O)(=O)N1CCOCC1 (stereo not given) : -6.82%
* O=C(c1ccnc(N2CCOC(C(F)(F)F)C2)c1)N1CCCC1 (stereo not given) : -20.35%
* O=C(O)C(F)(F)F.O=C(O)C(F)(F)F.c1cnc(N2CCCC3(CCN(CC4CC4)C3)C2)nc1 (stereo not given) : -11.35%
* CCCn1cc(C(=O)N[C@H]2CC[C@H](n3cnnc3)CC2)c(C)n1 : -21.15%
* Cn1nc(COCC2CC2)c2c1CCN(C(=O)c1ccno1)C2 : -39.01%
* Cc1ccc(CC(=O)N2CCC(Nc3ccc(C)nn3)CC2)cn1 : 14.26%
* Cc1cc(C)c(C#N)c(NCCSc2nncn2C)n1 : -7.507%
* COc1cc(NC2CCS(=O)(=O)CC2)ncn1 : -16.57%
* O=C1CC(c2cccs2)Cc2nc(O)c(C(=O)N3CCCC3)cc21 (stereo not given) : -16.53%
* O=C(NC1CC1)c1ccc2ccc(N3CCN(CC4CC4)CC3)n2c1 : 1.169%
* CCOC1CCCN(C(=O)CCOc2ccc(C)cc2OC)C1 (stereo not given) : -38.36%
* O=C(O)C(F)(F)F.[H][C@]12CCC[C@@]1(COCC1CCOCC1)CN(Cc1cc(C)on1)C2 : -33.21%
* O=C(O)C(F)(F)F.[H][C@@]12CCN(Cc3ccco3)C[C@@]1([H])O[C@H](C(=O)NCC1CCOCC1)C2 : 8.736%
* Cc1cnn(C2CCCN(C(=O)CCCOc3cccc(F)c3)C2)c1 (stereo not given) : -13.67%
* Cc1ccc(NC(=O)c2n[nH]c(-n3cnnc3)n2)cc1 : -9.418%
* CCN1CCC2(CCC1=O)CN(c1cnc3ccccc3n1)CCN2C (stereo not given) : -4.681%
* Cn1nc(CN2CCOCC2)c2c1CN(Cc1ccsc1)C2.O=C(O)C(F)(F)F.O=C(O)C(F)(F)F : 7.757%
* Cc1nc(-c2cnn(C)c2)nc2c1CN(C(=O)c1ccc[nH]1)CC2 : -32.13%
* COC(=O)[C@H](CC(C)C)NC(=O)c1snnc1-c1ccc(OC)cc1 : 1.764%
* CC(SCC(=O)N(C)CC(=O)NC1CC1)c1ccc(F)c(F)c1 (stereo not given) : 15.54%
* COCc1noc(-c2ccc(N3CCCC3c3nccs3)nc2)n1 (stereo not given) : -17.71%
* Cc1cc(C(=O)NCC(=O)NC(c2ncccc2C)C(C)C)c(C)o1 (stereo not given) : -53.62%
* CCN1CCC2(COCc3cnc(NCC4CC4)nc32)C1.O=C(O)C(F)(F)F (stereo not given) : -34.93%
* O=C(Cc1ccon1)NC1CCCN(c2ccccc2F)C1=O (stereo not given) : -26.56%
* CCN1CCCC1CN(CCN(C)C)S(=O)(=O)c1ccc(C#N)cc1 (stereo not given) : -54.2%
* Cc1cc(CNC2(c3ccccc3)CCCCC2)on1 : 8.651%
* CC(C)COC1CCN(S(=O)(=O)Cc2cccc(F)c2)CC1 : -19.45%
* Cc1cc(NCCc2c[nH]cn2)nc(-c2cccnc2)n1 : -38.62%
* c1ccc(-c2cnc(CNC3CCc4ncnn4C3)o2)cc1 (stereo not given) : -46.14%
* CS(=O)(=O)C1(C(=O)NC2CCc3nccn3C2)CCCC1 (stereo not given) : -43.41%
* Cc1ccccc1[C@@H]1CN(Cc2c(C)noc2C)C[C@H]1C(=O)O : -2.124%
* Cc1ccc(-c2nnc(CN3CCN(c4ccccn4)CC3)o2)cc1 : -11.25%
* [H][C@]12CC[C@]([H])(CN(C(=O)CCS(C)(=O)=O)C1)N(Cc1ccccn1)C2=O : -14.98%
* [H][C@@]12CCN(C(=O)c3cccc(C)n3)C[C@@]1([H])O[C@H](C)C2 : -2.682%
* Cc1noc(C)c1-c1cc(CCC2CN(CCC(N)=O)CCO2)ncn1 (stereo not given) : -15.04%
* COc1ccc(CNC(=O)NCc2ccc(C(N)=O)cc2)cn1 : -15.05%
* O=C(c1ccoc1)N(Cc1ccncc1)C1CC1 : -2.883%
* COCCNS(=O)(=O)c1ccc(Cl)c(C(=O)N(C)Cc2sccc2C)c1 : -5.757%
* Cc1ccc(CN2CCC3(CC2)C(=O)Nc2ccccc23)s1.O=C(O)C(F)(F)F : 8.016%
* CCC1CN(CC(=O)NCCN(CC)CC)c2ccccc2S1 (stereo not given) : 4.197%
* CN(C)CC(NC(=O)c1ccn(C)c(=O)c1)c1ccccc1 (stereo not given) : 0.6081%
* Cn1cc(CC2CC(=O)N(Cc3ccccc3OC(F)F)C2=O)cn1 (stereo not given) : -8.577%
* CC1c2ncc(COCC3CCCC3)n2CCN1S(=O)(=O)N(C)C (stereo not given) : -57.41%
* Cc1cc(N2CCN(Cc3cn(C)nc3C)CC2)cc(C2CCNC2)n1.Cl (stereo not given) : -0.09528%